Our source for the activity change, negative = cytotoxic values is PubChem BioAssay AID1935 (Broad Institute, 2009).

SMILES strings stand for the structures. In all, about 1,200 compounds were measured (“activity change, negative = cytotoxic”: median about -53, highest 2% from about 78 on). This is one part of the list. Results with a measured potency or affinity are listed apart. Entries without a call are filed as inconclusive in the source.

This assay can be described thus: BJ-TERT-LT-ST fibroblast viability loss – cell-based, RAS-independent, luminescence, dose response (AID 1935). The conditions noted are these: ATP luminescence; at 15 µM (top of the series).
Take `COc1cc2c(c(OC)c1OC)-c1ccc(O)c(=O)cc1C(NC(C)=O)CC2` (stereo not drawn): the activity change, negative = cytotoxic is -56.1%.

Take `C/C=C(\C)C(=O)N[C@@H](c1ccccc1)[C@@H](O)C(=O)O[C@H]1C[C@@]2(O)[C@@H](OC(=O)c3ccccc3)C3[C@](C)(C(=O)[C@H](OC(C)=O)C(=C1C)C2(C)C)[C@H](O)C[C@H]1OC[C@@]31OC(C)=O` (stereo partly drawn): the activity change, negative = cytotoxic was -61%.

For `C=C1C(=O)O[C@@H]2C[C@@H](C)[C@@H]3C=CC(=O)[C@@]3(C)[C@@H](OC(=O)CC(=O)O[C@H]3[C@@H]4C(=C)C(=O)O[C@@H]4C[C@@H](C)[C@@H]4C=CC(=O)[C@]43C)[C@H]12`, the activity change, negative = cytotoxic is -101%.
